In the supplement of paper PMC10849652:
The other results are listed elsewhere or left out.

Protein sequences, listed by entry. Tags and fused reporters are not part of them. Lines headed by an entry give the natural chain unless they say otherwise; changes in a name come on top.
UniProt O75030: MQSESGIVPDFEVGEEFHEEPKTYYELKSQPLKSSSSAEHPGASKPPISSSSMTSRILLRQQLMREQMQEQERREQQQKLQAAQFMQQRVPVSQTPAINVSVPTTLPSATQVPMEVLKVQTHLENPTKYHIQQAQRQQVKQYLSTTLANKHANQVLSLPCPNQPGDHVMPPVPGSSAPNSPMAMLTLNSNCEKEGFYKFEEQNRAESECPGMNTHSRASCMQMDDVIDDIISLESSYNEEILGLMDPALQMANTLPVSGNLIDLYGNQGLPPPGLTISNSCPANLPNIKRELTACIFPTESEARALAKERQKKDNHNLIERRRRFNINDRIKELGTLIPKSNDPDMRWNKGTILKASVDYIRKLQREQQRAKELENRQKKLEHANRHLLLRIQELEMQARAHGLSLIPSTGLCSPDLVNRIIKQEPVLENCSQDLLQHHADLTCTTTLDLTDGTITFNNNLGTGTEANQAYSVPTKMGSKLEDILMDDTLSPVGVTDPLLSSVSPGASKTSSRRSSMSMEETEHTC
UniProt Q8N4V1: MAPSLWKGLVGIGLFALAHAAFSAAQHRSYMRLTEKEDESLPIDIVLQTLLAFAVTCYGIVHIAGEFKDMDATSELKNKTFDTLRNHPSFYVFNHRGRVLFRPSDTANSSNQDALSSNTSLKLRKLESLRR
UniProt Q15773: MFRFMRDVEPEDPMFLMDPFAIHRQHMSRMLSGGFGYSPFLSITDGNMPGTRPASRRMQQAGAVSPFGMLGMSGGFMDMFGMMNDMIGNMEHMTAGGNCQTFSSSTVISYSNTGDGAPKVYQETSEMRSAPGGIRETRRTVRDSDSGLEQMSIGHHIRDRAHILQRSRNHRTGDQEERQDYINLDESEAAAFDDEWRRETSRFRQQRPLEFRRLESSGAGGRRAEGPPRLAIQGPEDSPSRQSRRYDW
UniProt Q8TD10: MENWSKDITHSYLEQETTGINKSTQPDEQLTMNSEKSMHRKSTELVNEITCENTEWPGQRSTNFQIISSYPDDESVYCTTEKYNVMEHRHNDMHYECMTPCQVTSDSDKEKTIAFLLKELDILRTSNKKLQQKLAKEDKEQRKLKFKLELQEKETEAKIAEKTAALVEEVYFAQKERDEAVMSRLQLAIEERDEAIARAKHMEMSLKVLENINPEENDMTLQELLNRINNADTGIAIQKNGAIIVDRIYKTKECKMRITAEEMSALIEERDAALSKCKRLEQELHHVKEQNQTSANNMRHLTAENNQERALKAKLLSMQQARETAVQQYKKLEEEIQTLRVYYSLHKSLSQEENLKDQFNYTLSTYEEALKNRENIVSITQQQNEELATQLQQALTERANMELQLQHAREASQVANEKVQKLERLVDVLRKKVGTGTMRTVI
UniProt P08473: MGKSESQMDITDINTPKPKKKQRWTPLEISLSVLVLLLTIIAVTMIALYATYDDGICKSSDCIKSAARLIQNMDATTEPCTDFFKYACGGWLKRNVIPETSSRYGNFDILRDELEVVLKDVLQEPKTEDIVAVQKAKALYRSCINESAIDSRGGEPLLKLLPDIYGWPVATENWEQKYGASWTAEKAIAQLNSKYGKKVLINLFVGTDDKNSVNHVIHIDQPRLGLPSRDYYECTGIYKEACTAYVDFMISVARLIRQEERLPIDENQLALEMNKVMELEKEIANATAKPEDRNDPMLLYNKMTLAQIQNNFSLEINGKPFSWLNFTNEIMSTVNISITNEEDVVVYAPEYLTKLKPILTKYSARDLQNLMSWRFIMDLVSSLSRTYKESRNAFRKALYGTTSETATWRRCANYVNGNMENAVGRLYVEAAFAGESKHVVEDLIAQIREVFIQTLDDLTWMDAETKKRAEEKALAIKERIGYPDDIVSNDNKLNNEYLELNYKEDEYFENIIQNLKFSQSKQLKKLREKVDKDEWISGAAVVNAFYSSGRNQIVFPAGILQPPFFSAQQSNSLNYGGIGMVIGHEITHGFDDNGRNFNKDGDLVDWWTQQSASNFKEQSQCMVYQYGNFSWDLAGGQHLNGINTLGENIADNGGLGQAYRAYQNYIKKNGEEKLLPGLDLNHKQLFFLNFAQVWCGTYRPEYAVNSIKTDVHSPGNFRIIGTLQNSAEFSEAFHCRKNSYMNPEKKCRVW
UniProt Q7Z6M3: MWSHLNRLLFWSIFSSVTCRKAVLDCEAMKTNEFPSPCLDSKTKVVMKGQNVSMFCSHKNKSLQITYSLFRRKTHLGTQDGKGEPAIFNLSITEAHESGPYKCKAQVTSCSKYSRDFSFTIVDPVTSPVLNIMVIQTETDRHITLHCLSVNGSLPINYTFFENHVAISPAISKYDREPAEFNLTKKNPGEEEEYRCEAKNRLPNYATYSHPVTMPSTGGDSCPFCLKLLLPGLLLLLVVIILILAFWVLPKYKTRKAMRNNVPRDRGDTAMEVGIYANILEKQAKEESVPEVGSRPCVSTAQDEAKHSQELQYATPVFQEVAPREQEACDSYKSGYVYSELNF
UniProt Q7L4E1: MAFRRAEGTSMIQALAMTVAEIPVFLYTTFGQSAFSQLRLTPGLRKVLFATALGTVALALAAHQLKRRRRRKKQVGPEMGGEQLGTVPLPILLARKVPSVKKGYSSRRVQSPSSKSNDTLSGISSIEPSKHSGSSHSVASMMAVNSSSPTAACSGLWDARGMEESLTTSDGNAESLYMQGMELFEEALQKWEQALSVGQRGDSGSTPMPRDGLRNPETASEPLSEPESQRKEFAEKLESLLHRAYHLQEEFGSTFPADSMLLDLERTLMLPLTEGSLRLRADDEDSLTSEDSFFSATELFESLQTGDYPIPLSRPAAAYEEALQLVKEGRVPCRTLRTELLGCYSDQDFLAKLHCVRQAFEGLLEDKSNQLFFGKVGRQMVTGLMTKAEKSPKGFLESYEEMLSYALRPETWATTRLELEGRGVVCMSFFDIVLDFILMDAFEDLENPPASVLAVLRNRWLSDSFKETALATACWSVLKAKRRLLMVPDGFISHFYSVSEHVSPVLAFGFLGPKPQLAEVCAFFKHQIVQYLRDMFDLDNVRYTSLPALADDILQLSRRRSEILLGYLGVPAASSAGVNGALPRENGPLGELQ
UniProt P16455, whole entry, looked up: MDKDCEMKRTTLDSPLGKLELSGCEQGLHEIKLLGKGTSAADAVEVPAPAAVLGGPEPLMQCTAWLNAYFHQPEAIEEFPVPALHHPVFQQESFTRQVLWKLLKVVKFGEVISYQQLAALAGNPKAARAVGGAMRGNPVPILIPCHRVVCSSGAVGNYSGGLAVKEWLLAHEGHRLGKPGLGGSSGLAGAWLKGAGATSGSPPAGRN
UniProt Q8N3R9: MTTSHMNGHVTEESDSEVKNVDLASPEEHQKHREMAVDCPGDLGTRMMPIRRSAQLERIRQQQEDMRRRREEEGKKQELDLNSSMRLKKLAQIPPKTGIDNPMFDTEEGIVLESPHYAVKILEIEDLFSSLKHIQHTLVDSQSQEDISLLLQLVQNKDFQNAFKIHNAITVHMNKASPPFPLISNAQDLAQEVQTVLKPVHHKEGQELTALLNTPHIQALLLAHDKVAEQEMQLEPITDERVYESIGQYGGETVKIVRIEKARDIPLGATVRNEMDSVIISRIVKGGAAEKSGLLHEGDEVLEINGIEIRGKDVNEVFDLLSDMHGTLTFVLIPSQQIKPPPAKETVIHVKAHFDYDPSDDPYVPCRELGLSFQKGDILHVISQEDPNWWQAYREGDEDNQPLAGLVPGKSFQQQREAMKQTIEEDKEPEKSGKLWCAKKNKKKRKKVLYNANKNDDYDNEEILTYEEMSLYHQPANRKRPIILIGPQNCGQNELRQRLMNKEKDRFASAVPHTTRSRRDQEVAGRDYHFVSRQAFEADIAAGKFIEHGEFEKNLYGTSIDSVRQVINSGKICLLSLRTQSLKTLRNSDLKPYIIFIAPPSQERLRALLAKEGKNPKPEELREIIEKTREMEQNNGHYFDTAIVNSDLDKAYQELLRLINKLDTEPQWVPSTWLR
UniProt Q8NB16: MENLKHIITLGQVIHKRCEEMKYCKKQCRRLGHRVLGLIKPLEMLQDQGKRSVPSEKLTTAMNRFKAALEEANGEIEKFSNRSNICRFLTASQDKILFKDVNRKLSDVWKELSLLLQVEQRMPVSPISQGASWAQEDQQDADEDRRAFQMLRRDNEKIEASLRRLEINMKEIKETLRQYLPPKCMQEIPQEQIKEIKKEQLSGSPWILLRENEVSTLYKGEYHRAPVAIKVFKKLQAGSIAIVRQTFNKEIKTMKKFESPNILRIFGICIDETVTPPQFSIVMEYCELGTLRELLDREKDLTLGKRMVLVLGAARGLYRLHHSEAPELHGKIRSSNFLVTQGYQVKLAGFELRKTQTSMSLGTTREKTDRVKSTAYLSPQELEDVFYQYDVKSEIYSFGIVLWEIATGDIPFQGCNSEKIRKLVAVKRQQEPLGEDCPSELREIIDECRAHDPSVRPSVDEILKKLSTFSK
UniProt O96033: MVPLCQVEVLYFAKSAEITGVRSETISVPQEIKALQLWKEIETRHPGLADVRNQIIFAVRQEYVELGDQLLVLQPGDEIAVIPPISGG
UniProt Q6UWV2: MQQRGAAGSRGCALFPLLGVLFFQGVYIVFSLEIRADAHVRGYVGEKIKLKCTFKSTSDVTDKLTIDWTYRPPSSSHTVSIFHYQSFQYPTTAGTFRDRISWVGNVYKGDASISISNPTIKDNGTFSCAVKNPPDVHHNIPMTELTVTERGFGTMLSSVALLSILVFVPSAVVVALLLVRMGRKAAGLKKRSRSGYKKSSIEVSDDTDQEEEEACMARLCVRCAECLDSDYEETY
UniProt Q5JXC2: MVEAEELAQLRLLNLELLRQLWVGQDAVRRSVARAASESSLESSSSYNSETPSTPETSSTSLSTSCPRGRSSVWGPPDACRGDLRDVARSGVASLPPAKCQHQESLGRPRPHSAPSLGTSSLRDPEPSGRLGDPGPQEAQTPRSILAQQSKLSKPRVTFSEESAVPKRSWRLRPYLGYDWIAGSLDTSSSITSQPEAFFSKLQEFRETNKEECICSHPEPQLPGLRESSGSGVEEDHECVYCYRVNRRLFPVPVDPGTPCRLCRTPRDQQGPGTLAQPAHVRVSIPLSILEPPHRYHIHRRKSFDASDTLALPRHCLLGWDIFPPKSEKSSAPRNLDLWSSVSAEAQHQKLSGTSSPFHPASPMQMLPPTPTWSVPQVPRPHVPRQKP
UniProt Q7Z3K6: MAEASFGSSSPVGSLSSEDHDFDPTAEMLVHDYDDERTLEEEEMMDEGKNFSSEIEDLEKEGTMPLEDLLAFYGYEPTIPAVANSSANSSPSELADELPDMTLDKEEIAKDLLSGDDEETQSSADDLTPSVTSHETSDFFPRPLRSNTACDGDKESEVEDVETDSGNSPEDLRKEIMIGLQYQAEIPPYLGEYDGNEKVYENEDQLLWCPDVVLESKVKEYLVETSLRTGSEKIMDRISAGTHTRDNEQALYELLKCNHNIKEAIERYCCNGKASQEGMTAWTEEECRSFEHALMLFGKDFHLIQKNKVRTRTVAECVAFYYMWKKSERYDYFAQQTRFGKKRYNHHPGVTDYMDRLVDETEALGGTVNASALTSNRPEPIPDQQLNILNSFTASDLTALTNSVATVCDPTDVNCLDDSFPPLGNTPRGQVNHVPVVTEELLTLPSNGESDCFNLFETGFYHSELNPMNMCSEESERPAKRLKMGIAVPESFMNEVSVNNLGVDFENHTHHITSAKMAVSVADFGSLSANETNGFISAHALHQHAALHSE
UniProt O95396: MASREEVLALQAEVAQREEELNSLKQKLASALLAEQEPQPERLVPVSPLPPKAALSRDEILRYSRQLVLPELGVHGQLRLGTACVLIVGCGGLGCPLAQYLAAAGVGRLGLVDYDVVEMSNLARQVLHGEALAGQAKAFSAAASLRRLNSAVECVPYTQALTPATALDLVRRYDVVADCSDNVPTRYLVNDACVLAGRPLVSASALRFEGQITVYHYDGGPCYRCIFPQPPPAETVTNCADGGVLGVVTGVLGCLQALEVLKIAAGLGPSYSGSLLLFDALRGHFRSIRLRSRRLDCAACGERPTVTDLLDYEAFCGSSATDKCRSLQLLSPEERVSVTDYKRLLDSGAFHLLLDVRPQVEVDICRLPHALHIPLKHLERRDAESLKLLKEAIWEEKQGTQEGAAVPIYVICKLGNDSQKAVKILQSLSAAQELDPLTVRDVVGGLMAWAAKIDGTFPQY
UniProt P26572: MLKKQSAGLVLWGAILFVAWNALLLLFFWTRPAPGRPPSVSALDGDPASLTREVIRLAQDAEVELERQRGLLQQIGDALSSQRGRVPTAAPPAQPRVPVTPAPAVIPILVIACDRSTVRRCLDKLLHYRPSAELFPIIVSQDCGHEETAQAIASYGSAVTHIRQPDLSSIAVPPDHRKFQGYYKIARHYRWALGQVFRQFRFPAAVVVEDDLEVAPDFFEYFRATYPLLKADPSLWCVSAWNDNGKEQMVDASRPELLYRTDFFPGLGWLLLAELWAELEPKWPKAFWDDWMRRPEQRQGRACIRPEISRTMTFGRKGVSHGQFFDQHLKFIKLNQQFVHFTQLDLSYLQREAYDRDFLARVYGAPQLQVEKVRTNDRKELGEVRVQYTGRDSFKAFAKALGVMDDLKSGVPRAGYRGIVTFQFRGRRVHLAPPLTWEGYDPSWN

How the values were obtained:
Test in all cases: log2 fold change, soluble protein after heating vs DMSO (PISA); higher = thermal stabilisation; K562 lysate, 10 uM; active = over 0.2 and 3.5 SD of the protein, either way, in both replicates (recomputed)
vemurafenib = compound: CCCS(=O)(=O)Nc1ccc(F)c(C(=O)c2c[nH]c3ncc(-c4ccc(Cl)cc4)cc23)c1F [vemurafenib]
Procedure, shortened: (§1)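 K562 pellets were dounce-homogenised in PBS pH 7.4 containing 1 mM MgCl2, and the crude extract, at 1 mg/mL protein, was exposed to 10 μM compound for 30 min. Aliquots were heated for 3 min across 48°C-58°C, pooled, brought to 0.5% NP-40 at 4°C and spun at 21,000xg for 90 min, with the supernatant taken as soluble protein. TMTpro 16plex LC-MS/MS with equalised channel sums quantified that protein. Values are log-two fold changes in thermal stability relative to solvent controls, taken from duplicates.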

[1] = compound: CCCS(=O)(=O)Nc1ccc(F)c(C(=O)c2c[nH]c3ncc(Cl)cc23)c1F
Procedure, shortened: as §1

[2] = compound: CC[C@@H]1C(=O)N(C)c2cnc(Nc3ccc(C(=O)NC4CCN(C)CC4)cc3OC)nc2N1C1CCCC1
Procedure, shortened: as §1

volasertib = compound: CC[C@@H]1C(=O)N(C)c2cnc(Nc3ccc(C(=O)N[C@H]4CC[C@H](N5CCN(CC6CC6)CC5)CC4)cc3OC)nc2N1C(C)C [volasertib]
Procedure, shortened: as §1

[3] = compound: CCn1c(C(=O)N(C2CC2)C2CC2)cc2c3c(ncn3C)c(Nc3cc(C)n(C)n3)nc21
Procedure, shortened: as §1

[4] = compound: CCn1cc(-c2ccnc3[nH]c(-c4cccc(CN(C)C)c4)cc23)c(-c2ccc(NC(=O)N(C)C)cc2)n1
Procedure, shortened: as §1

[5] = compound: CN1CCC(CNc2ccc3ncc(-c4cccc(OC(F)(F)F)c4)n3n2)CC1
Procedure, shortened: as §1

saracatinib = compound: CN1CCN(CCOc2cc(OC3CCOCC3)c3c(Nc4c(Cl)ccc5c4OCO5)ncnc3c2)CC1 [saracatinib]
Procedure, shortened: as §1

sotrastaurin = compound: CN1CCN(c2nc(C3=C(c4c[nH]c5ccccc45)C(=O)NC3=O)c3ccccc3n2)CC1 [sotrastaurin]
Procedure, shortened: as §1

barasertib = compound: CCN(CCCOc1ccc2c(Nc3cc(CC(=O)Nc4cccc(F)c4)[nH]n3)ncnc2c1)CCOP(=O)(O)O [barasertib]
Procedure, shortened: as §1

Measured: log2 fold change

MRPL18 (UniProt Q9H0U6)
inactive: vemurafenib -0.036 | [1] 0 | [2] -0.06 | volasertib -0.084 | [3] 0.026 | [4] 0.084 | [5] -0.02 | saracatinib 0.025 | sotrastaurin 0.068

MITF (UniProt O75030)
inactive: vemurafenib -0.031 | [2] 0.037 | [3] 0.008 | [4] -0.058 | [5] -0.014 | saracatinib -0.057 | sotrastaurin -0.088

MMGT1 (UniProt Q8N4V1)
inactive: [1] 0.008 | barasertib 0.056 | [2] 0.059 | volasertib -0.012 | [3] 0.038 | [4] -0.071 | [5] 0.079 | saracatinib 0.035 | sotrastaurin 0.021

MRE11 (UniProt F8W7U8)
inactive: [1] 0.109 | volasertib 0.097

MINDY2 (UniProt Q8NBR6)
inactive: [1] -0.089 | barasertib -0.034 | [2] -0.004 | volasertib -0.045 | [3] 0.042 | [4] 0.089 | [5] 0 | sotrastaurin -0.083

MLF2 (UniProt Q15773)
inactive: vemurafenib -0.047 | barasertib 0.011 | [2] 0.107 | [3] -0.007 | [4] 0.02 | [5] -0.028 | saracatinib 0.05 | sotrastaurin -0.01

MLXIPL (UniProt Q9NP71)
inactive: [3] 0.113 | [4] -0.144 | [5] 0.04 | sotrastaurin -0.024

MKKS (UniProt Q9NPJ1)
inactive: vemurafenib -0.174 | barasertib -0.077 | [2] 0.175 | [4] -0.034 | [5] 0.195 | saracatinib -0.059

MIPOL1 (UniProt Q8TD10)
inactive: [1] -0.052 | barasertib 0.035 | [2] 0.319 | volasertib -0.038 | [3] 0.073 | [4] 0.042 | [5] -0.117 | saracatinib -0.096 | sotrastaurin 0.028

MMACHC (UniProt Q9Y4U1)
inactive: vemurafenib -0.027 | barasertib 0.192 | [3] 0.033 | [4] -0.14 | [5] 0.201 | saracatinib 0.215

MME (UniProt P08473)
inactive: [1] -0.092 | barasertib -0.084 | volasertib 0.001 | [3] 0.075 | [4] -0.044 | [5] 0.009 | saracatinib -0.114 | sotrastaurin 0.016

MRPL22 (UniProt Q9NWU5)
inactive: [1] 0.001 | volasertib -0.002 | [3] -0.069 | [4] -0.006 | [5] -0.045 | sotrastaurin -0.013

Two consecutive records from above, for reference:
MMACHC (UniProt Q9Y4U1)
inactive: vemurafenib -0.027 | barasertib 0.192 | [3] 0.033 | [4] -0.14 | [5] 0.201 | saracatinib 0.215

MME (UniProt P08473)
inactive: [1] -0.092 | barasertib -0.084 | volasertib 0.001 | [3] 0.075 | [4] -0.044 | [5] 0.009 | saracatinib -0.114 | sotrastaurin 0.016

Further records

MILR1 (UniProt Q7Z6M3)
inactive: vemurafenib -0.024 | [2] 0.193 | [3] -0.044 | sotrastaurin 0.017

MROH1 (UniProt Q8NDA8)
inactive: barasertib 0.048 | [2] 0.056 | [3] 0.015 | [4] 0.065 | [5] 0.023 | saracatinib 0.053 | sotrastaurin -0.025

MID1IP1 (UniProt Q9NPA3)
inactive: vemurafenib -0.01 | barasertib 0.085 | [2] -0.015 | [3] 0.063 | [4] -0.001 | [5] -0.049 | saracatinib 0.017 | sotrastaurin 0.041

MIGA2 (UniProt Q7L4E1)
inactive: [2] -0.22 | [3] -0.038 | saracatinib 0.101

MGMT (UniProt P16455)
inactive: [3] 0.014 | saracatinib -0.205

MOB1A (UniProt Q9H8S9)
inactive: vemurafenib 0.307 | [2] 0.147

MPP5 (UniProt Q8N3R9)
inactive: vemurafenib -0.029 | barasertib -0.058 | [2] -0.011 | [3] 0.042 | [4] -0.084 | [5] -0.038 | saracatinib -0.04 | sotrastaurin -0.006

MKNK2 (UniProt Q9HBH9)
inactive: vemurafenib 0.239 | [2] 0 | [3] -0.069 | saracatinib 0.11

MLKL (UniProt Q8NB16)
inactive: [1] 0.098 | barasertib 0.185 | [2] -0.107 | volasertib -0.016 | [3] 0.096 | [4] -0.251 | [5] 0.072 | sotrastaurin -0.021

MOCS2 (UniProt O96033)
inactive: [1] 0.107 | volasertib 0.031 | [3] 0.085 | saracatinib 0.023 | sotrastaurin -0.017

MIDEAS, A0A1C7CYX1
inactive: [1] -0.021 | volasertib -0.056 | [3] 0.102 | saracatinib 0.261 | sotrastaurin -0.062

MLYCD (UniProt O95822)
inactive: [1] -0.011 | barasertib 0.118 | [2] -0.093 | volasertib 0.003 | [3] 0.012 | [4] -0.054 | [5] 0.119 | saracatinib -0.004 | sotrastaurin 0

MPZL3 (UniProt Q6UWV2)
inactive: [3] 0.051

MR1 (UniProt Q95460)
inactive: vemurafenib 0.174 | barasertib -0.027 | [2] 0.03 | saracatinib -0.099

MRNIP (UniProt Q6NTE8)
inactive: [1] -0.078 | barasertib 0.142 | volasertib -0.062 | [3] -0.127 | [4] -0.021 | [5] 0.196 | saracatinib 0.144 | sotrastaurin 0.004

MICA (UniProt Q29983)
inactive: barasertib -0.194 | [4] -0.373 | [5] 0.139

Looked up one by one from the list above, 2 records:
MICA (UniProt Q29983)
inactive: barasertib -0.194 | [4] -0.373 | [5] 0.139

MPZL3 (UniProt Q6UWV2)
inactive: [3] 0.051

Remaining list, next part.

MIIP (UniProt Q5JXC2)
inactive: barasertib 0.122 | [3] 0.041 | sotrastaurin 0.078

MIER3 isoform 2 (UniProt Q7Z3K6)
inactive: vemurafenib -0.033 | barasertib 0.091 | [2] -0.014 | [3] 0.035 | [4] 0.042 | [5] -0.063 | saracatinib -0.012 | sotrastaurin -0.034

MLF1 isoform 3 (UniProt P58340)
inactive: vemurafenib -0.09 | [4] -0.079 | [5] -0.051

MISP3 (UniProt Q96FF7)
inactive: [1] 0.004 | volasertib 0.08 | saracatinib 0.042

MOCS3 (UniProt O95396)
inactive: vemurafenib -0.12 | barasertib -0.018 | [2] -0.038 | [3] 0.037 | [4] -0.273 | [5] 0.264 | saracatinib 0.06 | sotrastaurin 0.11

MGAT1 (UniProt P26572)
inactive: vemurafenib -0.119 | [1] -0.034 | [2] 0.043 | volasertib -0.029 | [3] -0.056 | [4] -0.109 | [5] -0.006 | saracatinib 0.011 | sotrastaurin 0.072

MPDZ (UniProt O75970)
inactive: vemurafenib 0.059 | [1] 0.03 | [2] 0 | volasertib -0.026 | [3] -0.115 | [4] 0.129 | [5] -0.017 | saracatinib 0.088 | sotrastaurin 0.209
